These are yes or no findings as the source states them, for the method shown. Some binding calls cover weakened binding; strength is not graded here.
How the values were obtained:
endogenous human iRhom2 [1] = molecular target: T1, endogenous human iRhom2 (human, UniProt Q6PJF5 1-856); experiment: FACS on RPMI-8226 and THP-1 cells, 3 µg/ml
T1 sequence: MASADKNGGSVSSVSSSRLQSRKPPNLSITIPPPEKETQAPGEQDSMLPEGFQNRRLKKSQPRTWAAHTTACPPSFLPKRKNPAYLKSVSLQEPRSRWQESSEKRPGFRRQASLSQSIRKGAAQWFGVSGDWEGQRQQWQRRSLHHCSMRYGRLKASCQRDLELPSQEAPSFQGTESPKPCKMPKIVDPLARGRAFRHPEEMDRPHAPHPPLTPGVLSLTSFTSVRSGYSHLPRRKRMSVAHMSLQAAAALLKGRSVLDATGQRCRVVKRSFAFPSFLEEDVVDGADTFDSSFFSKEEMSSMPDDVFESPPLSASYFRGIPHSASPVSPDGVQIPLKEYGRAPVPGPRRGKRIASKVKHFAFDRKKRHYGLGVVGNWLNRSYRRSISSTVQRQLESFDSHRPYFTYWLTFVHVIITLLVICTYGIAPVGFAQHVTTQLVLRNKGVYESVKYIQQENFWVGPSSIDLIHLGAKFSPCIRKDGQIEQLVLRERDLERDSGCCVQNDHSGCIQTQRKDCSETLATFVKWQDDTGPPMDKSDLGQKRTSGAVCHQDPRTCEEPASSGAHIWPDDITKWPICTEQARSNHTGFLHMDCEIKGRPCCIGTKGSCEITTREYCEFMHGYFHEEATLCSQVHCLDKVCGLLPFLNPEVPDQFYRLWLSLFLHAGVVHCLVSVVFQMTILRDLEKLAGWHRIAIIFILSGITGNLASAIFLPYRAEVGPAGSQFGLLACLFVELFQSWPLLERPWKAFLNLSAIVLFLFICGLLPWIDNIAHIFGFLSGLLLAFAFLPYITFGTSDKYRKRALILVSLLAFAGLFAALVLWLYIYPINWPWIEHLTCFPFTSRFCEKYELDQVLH

endogenous human iRhom2 [2] = molecular target: T1, endogenous human iRhom2; experiment: FACS on RPMI-8226 and THP-1 cells

B1: humanized antibody 42-B-02 (antibody, V domains shown)
VH: QVTLRESGPALVKPTQTLTLTCTFSGFSLSTFGRGVGWIRQPPGKALEWLAHIWWDDEKYYNSALKSRLTISKDTSKNQVVLTITNMDPVDTATYYCARIQNYGSNYWYFDVWGQGTLVTVSS
VL: AIQLTQSPSSLSASVGDRVTITCRASSRISYMFWYQQKPGKAPKVLIYDTSNLASGVPSRFSGSGSGTDYTLTISSLQPEDFATYYCQQWNSYPLTFGQGTKLEIK
notes: Tested as whole humanized antibody from transient expression of heavy chain/kappa light chain pairs in CHO cells, detected with anti-human IgG; the general methods speak of human IgG1/Kappa; also called clone 42-B-02
With B1 the binding (endogenous human iRhom2 [1]) was “binds” and the binding (endogenous human iRhom2 [2]) was “binds”.
